Data set [1] is described as follows: CEST/[…] spectra of Yb-DO3A-oAA before and after reaction with NO. Conditions: for effect of MR saturation at +10 ppm (amino resonance frequency) relative to the water resonance: independent samples, FIG. 4, unbuffered, pH approximately 5.7-6.3 after reaction.
The nature of data set [2]: Effect of pH and temperature on […] of DEVD-(Tm-DOTA) amide. Format: physicochemical.

The values below come from patent publication US20090142273A1, “Activatable cest MRI agent” (CASE WESTERN RESERVE UNIVERSITY, priority 2006, published 2009).

Regarding `Nc1ccccc1NC(=O)CN1CCN(CC(=O)[O-])CCN(CC(=O)[O-])CCN(CC(=O)[O-])CC1.[Yb+3]` [compound 50, Yb(III)-1,4,7,10-tetraazacyclododecane-1,4,7,10-tetraacetic acid o-Aminoanilide], the “CEST effect / MR frequency of amide protons relative to water” value in data set [1] (amide functional group) is given as −13 ppm. Besides, the “effect of MR saturation at +10 ppm (amino resonance frequency) relative to the water resonance” value in data set [1] was “decrease in MR water signal”.

For DEVD-(Tm-DOTA) amide [compound 155], the “pH of greatest PARACEST effect, amide proton” value in data set [2] (25 mM, saturation at −51 ppm and +51 ppm, 31 μT for 4 seconds) is recorded as about 8. The “pH of greatest PARACEST effect, amine protons” value in data set [2] (amine protons, substance not given) is on record as 5.

In the case of Yb-DO3A-triazine [compound 32], the “effect of MR saturation at +10 ppm (amino resonance frequency) relative to the water resonance” value in data set [1] is “no PARACEST effect”.
